The target of the experiment is recombinant IL-1RAP biotinylated protein (UniProt Q9NPH3). Put plainly: flow cytometry with biotinylated recombinant IL-1RAP on CAR-transduced cells.

By UniProt entry, the sequences of proteins in these tests, tags left out. Residues count along the entry.
UniProt Q9NPH3, residues 21-359: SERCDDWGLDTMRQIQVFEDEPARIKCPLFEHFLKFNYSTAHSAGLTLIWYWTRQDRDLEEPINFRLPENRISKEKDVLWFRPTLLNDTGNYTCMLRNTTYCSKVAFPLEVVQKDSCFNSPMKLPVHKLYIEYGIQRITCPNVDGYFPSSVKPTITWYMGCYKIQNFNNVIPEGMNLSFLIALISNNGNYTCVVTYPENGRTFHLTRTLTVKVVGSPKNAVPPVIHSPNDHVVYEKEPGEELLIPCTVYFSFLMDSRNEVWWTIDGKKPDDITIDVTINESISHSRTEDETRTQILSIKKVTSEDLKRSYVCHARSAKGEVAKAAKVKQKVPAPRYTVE

No constants are given. Whether binding was seen depends on the method and setting. Some binding calls cover weakened binding; strength is not graded here.

B1: IL-1RAP CAR (chimeric antigen receptor with the scFv of #E3C3, from pSDY-iC9-IL-1RAPCAR-dCD19) (protein, not shown: small tags and cut ends)
chain: QVQLQQPGAELMMPGASVKVSCEASGYTFTDSWMHWVKQRPGQGLEWIGAIDPSDSYTTYNQKFTGKATLSVDESSNTAYMQLSSLTSEDSAVYYCARYYSGSNYISPFPYWGQGTLVTVSAGGSGGGGSGGGGSVDMESQIQVFVFVFLWLSGVDGDIVMTQSHKFMSTSVGDRVTITCKASLDVSTAVAWYQQKPGQSPKLLIYSASYRYTGVPDRFTGSGSGTDFTFTISSVQAEDLAVYYCQQHYSPPFTFGSGTNLEIK
As to B1, the binding entry is reported as “binds”.

The values are drawn from patent US20210008108A1 (ETABLISSEMENT FRANCAIS DU SANG, published 2021).
